{"source": "PubChem BioAssay AID1159595 (NIAID, 2016)", "aim": "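How silencing each gene alters a Tnf reporter after TLR2 stimulation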 (primary screen)", "cell system": "mouse RAW264.7 macrophage reporter cells", "reagent": "single siRNA against mouse genes", "timing": "assayed 48 to 72 hours after siRNA transfection; ligand applied for 16 hours", "conditions": "Pam3CSK4 (TLR2 ligand) for 16 hours before fixation; dose not given", "measurement": "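High-content imaging of Tnf promoter-driven nuclear mCherry in cells given Pam3CSK4 for 16 h, 48–72 h after transfection; value is the replicate mean of plate-normalised background-corrected robust z-scores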", "direction": "Tnf reporter z-score (replicate mean): higher = stronger Tnf promoter reporter signal than negative control wells", "call rule": "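An siRNA is active when its replicate-mean z-score is -1.5 or lower or 1.5 or higher (activity score at least 50); activity graded at absolute z 1, 1.5, 2 and 2.5; calls apply to single siRNAs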", "calls": "active = strong change (up or down); inactive = little change", "note": "Here is a random part of 756 deposited reagents. 115 of all reagents (15%) were called active. 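Active calls cover both lowered and raised reporter signal; each score refers to one siRNA rather than a whole gene.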 Reagents against one gene are numbered here. No sequences are given here. Not given: the amount of reagent."}
{"gene": "Dusp1", "siRNA no.": 1, "Tnf reporter z-score (replicate mean)": -0.407, "activity call": "inactive"}
{"gene": "Dusp1", "siRNA no.": 2, "Tnf reporter z-score (replicate mean)": 0.283, "activity call": "inactive"}
{"gene": "Dusp1", "siRNA no.": 3, "Tnf reporter z-score (replicate mean)": -0.591, "activity call": "inactive"}
{"gene": "Dusp1", "siRNA no.": 4, "Tnf reporter z-score (replicate mean)": 1.06, "activity call": "inactive"}
{"gene": "Dusp1", "siRNA no.": 5, "Tnf reporter z-score (replicate mean)": -0.661, "activity call": "inactive"}
{"gene": "Dusp1", "siRNA no.": 6, "Tnf reporter z-score (replicate mean)": -0.268, "activity call": "inactive"}
{"gene": "Ptk2b", "siRNA no.": 1, "Tnf reporter z-score (replicate mean)": -0.428, "activity call": "inactive"}
{"gene": "Ptk2b", "siRNA no.": 2, "Tnf reporter z-score (replicate mean)": 1.38, "activity call": "inactive"}
{"gene": "Ptk2b", "siRNA no.": 3, "Tnf reporter z-score (replicate mean)": -0.695, "activity call": "inactive"}
{"gene": "Ptk2b", "siRNA no.": 4, "Tnf reporter z-score (replicate mean)": -0.535, "activity call": "inactive"}
{"gene": "Ptk2b", "siRNA no.": 5, "Tnf reporter z-score (replicate mean)": 0.666, "activity call": "inactive"}
{"gene": "Ptk2b", "siRNA no.": 6, "Tnf reporter z-score (replicate mean)": 0.552, "activity call": "inactive"}
{"gene": "Itgam", "siRNA no.": 1, "Tnf reporter z-score (replicate mean)": -1.29, "activity call": "inactive"}
{"gene": "Itgam", "siRNA no.": 2, "Tnf reporter z-score (replicate mean)": -0.762, "activity call": "inactive"}
{"gene": "Itgam", "siRNA no.": 3, "Tnf reporter z-score (replicate mean)": 0.0279, "activity call": "inactive"}
{"gene": "Itgam", "siRNA no.": 4, "Tnf reporter z-score (replicate mean)": 0.291, "activity call": "inactive"}
{"gene": "Itgam", "siRNA no.": 5, "Tnf reporter z-score (replicate mean)": -0.266, "activity call": "inactive"}
{"gene": "Itgam", "siRNA no.": 6, "Tnf reporter z-score (replicate mean)": -0.466, "activity call": "inactive"}
{"gene": "Cd180", "siRNA no.": 1, "Tnf reporter z-score (replicate mean)": -0.98, "activity call": "inactive"}
{"gene": "Cd180", "siRNA no.": 2, "Tnf reporter z-score (replicate mean)": 0.0994, "activity call": "inactive"}
{"gene": "Cd180", "siRNA no.": 3, "Tnf reporter z-score (replicate mean)": -0.0558, "activity call": "inactive"}
{"gene": "Cd180", "siRNA no.": 4, "Tnf reporter z-score (replicate mean)": -0.74, "activity call": "inactive"}
{"gene": "Cd180", "siRNA no.": 5, "Tnf reporter z-score (replicate mean)": -1.23, "activity call": "inactive"}
{"gene": "Cd180", "siRNA no.": 6, "Tnf reporter z-score (replicate mean)": -0.541, "activity call": "inactive"}
{"gene": "Irf9", "siRNA no.": 1, "Tnf reporter z-score (replicate mean)": 1.31, "activity call": "inactive"}
{"gene": "Irf9", "siRNA no.": 2, "Tnf reporter z-score (replicate mean)": 0.896, "activity call": "inactive"}
{"gene": "Irf9", "siRNA no.": 3, "Tnf reporter z-score (replicate mean)": 0.0595, "activity call": "inactive"}
{"gene": "Irf9", "siRNA no.": 4, "Tnf reporter z-score (replicate mean)": 1.09, "activity call": "inactive"}
{"gene": "Irf9", "siRNA no.": 5, "Tnf reporter z-score (replicate mean)": 1.79, "activity call": "active"}
{"gene": "Irf9", "siRNA no.": 6, "Tnf reporter z-score (replicate mean)": -1.1, "activity call": "inactive"}
{"gene": "Tlr2", "siRNA no.": 1, "Tnf reporter z-score (replicate mean)": -0.447, "activity call": "inactive"}
{"gene": "Tlr2", "siRNA no.": 2, "Tnf reporter z-score (replicate mean)": -0.257, "activity call": "inactive"}
{"gene": "Tlr2", "siRNA no.": 3, "Tnf reporter z-score (replicate mean)": -0.29, "activity call": "inactive"}
{"gene": "Tlr2", "siRNA no.": 4, "Tnf reporter z-score (replicate mean)": 0.968, "activity call": "inactive"}
{"gene": "Tlr2", "siRNA no.": 5, "Tnf reporter z-score (replicate mean)": -1, "activity call": "inactive"}
{"gene": "Tlr2", "siRNA no.": 6, "Tnf reporter z-score (replicate mean)": -1.03, "activity call": "inactive"}
{"gene": "Ep300", "siRNA no.": 1, "Tnf reporter z-score (replicate mean)": -2.25, "activity call": "active"}
{"gene": "Ep300", "siRNA no.": 2, "Tnf reporter z-score (replicate mean)": -0.791, "activity call": "inactive"}
{"gene": "Ep300", "siRNA no.": 3, "Tnf reporter z-score (replicate mean)": 1.34, "activity call": "inactive"}
{"gene": "Ep300", "siRNA no.": 4, "Tnf reporter z-score (replicate mean)": -0.031, "activity call": "inactive"}
{"gene": "Ep300", "siRNA no.": 5, "Tnf reporter z-score (replicate mean)": 0.107, "activity call": "inactive"}
{"gene": "Ep300", "siRNA no.": 6, "Tnf reporter z-score (replicate mean)": -0.746, "activity call": "inactive"}
{"gene": "Ly86", "siRNA no.": 1, "Tnf reporter z-score (replicate mean)": -0.000627, "activity call": "inactive"}
{"gene": "Ly86", "siRNA no.": 2, "Tnf reporter z-score (replicate mean)": 0.111, "activity call": "inactive"}
{"gene": "Ly86", "siRNA no.": 3, "Tnf reporter z-score (replicate mean)": -0.255, "activity call": "inactive"}
{"gene": "Ly86", "siRNA no.": 4, "Tnf reporter z-score (replicate mean)": 1.16, "activity call": "inactive"}
{"gene": "Ly86", "siRNA no.": 5, "Tnf reporter z-score (replicate mean)": 1.18, "activity call": "inactive"}
{"gene": "Ly86", "siRNA no.": 6, "Tnf reporter z-score (replicate mean)": -0.854, "activity call": "inactive"}

No new results follow: an excerpt of the list.
{"gene": "Irf9", "siRNA no.": 3, "Tnf reporter z-score (replicate mean)": 0.0595, "activity call": "inactive"}
{"gene": "Irf9", "siRNA no.": 4, "Tnf reporter z-score (replicate mean)": 1.09, "activity call": "inactive"}
{"gene": "Irf9", "siRNA no.": 5, "Tnf reporter z-score (replicate mean)": 1.79, "activity call": "active"}
{"gene": "Irf9", "siRNA no.": 6, "Tnf reporter z-score (replicate mean)": -1.1, "activity call": "inactive"}
{"gene": "Tlr2", "siRNA no.": 1, "Tnf reporter z-score (replicate mean)": -0.447, "activity call": "inactive"}
{"gene": "Tlr2", "siRNA no.": 2, "Tnf reporter z-score (replicate mean)": -0.257, "activity call": "inactive"}
{"gene": "Tlr2", "siRNA no.": 3, "Tnf reporter z-score (replicate mean)": -0.29, "activity call": "inactive"}
